Literature values as cited in patent US12642806B2, “Cannabidiol compositions for use in treating heart conditions” (CARDIOL THERAPEUTICS INC., priority 2019, dated 2026).

Settings: background statement; cited from earlier work

Q: With `C=C(C)[C@@H]1CCC(C)=C[C@H]1c1c(O)cc(CCCCC)cc1O` [CBD, cannabidiol] as the compound, how does the solubility in water read?
A: virtually insoluble in water
